Laboratory results published in paper PMC11949838, “FUT10 and FUT11 are protein O-fucosyltransferases that modify protein EMI domains” (Nature Chemical Biology, 2025).
Positions count from the first letter of the chain named. No constants are given. Whether binding was seen depends on the method and setting. In cells and extracts the contact can be indirect. Binding can be weak; no strength is given. Where a sequence is shown, tags or fusion partners need not be part of it.

By UniProt entry, the sequences of proteins in these tests, tags left out. Where a name states a change or a piece, a line headed by the entry shows the natural chain unless it says otherwise.
UniProt Q6P4F1: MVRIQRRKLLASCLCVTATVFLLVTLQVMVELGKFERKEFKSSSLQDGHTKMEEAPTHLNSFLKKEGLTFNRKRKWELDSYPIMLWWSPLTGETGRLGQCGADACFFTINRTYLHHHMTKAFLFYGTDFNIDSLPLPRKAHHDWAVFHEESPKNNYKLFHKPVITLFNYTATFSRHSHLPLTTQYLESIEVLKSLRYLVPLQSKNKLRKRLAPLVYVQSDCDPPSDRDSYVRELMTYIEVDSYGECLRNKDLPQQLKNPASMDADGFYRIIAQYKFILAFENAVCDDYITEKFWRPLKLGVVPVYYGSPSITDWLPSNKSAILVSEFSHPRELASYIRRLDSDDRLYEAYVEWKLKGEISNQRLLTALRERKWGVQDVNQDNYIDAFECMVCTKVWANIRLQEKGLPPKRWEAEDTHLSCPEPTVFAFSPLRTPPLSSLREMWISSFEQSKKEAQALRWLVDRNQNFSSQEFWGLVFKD
UniProt Q495W5: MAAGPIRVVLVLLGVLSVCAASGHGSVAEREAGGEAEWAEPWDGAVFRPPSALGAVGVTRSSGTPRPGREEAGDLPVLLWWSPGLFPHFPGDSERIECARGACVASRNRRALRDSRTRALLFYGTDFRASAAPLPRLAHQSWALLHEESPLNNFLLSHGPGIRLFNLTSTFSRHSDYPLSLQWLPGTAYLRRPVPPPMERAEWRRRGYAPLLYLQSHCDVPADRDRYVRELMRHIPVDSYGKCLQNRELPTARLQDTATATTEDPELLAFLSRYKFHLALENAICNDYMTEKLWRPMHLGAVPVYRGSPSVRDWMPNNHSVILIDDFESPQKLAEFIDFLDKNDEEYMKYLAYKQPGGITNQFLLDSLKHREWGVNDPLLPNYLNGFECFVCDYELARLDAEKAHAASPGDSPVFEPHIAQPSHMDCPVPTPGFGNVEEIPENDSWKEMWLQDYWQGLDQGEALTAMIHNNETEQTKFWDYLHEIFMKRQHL

Key:
[1] = molecular target: T1, human MMRN1 N-terminal EMI-Myc-His6 T216A mutant (human) (UniProt Q13201); assay: co-IP; HEK293 cells co-transfected with EMI-Myc and FUT plasmids, 24 h; lysis in 1% Igepal CA-630, 50 mM Tris-HCl pH 7.4, 150 mM NaCl, 5% glycerol, 1 mM MgCl2; anti-c-Myc (9E10) magnetic beads, 4 °C, 2 h; eluted proteins digested and quantified by LC-MS/MS (label-free quantification, MaxQuant), n = 3
T1 sequence: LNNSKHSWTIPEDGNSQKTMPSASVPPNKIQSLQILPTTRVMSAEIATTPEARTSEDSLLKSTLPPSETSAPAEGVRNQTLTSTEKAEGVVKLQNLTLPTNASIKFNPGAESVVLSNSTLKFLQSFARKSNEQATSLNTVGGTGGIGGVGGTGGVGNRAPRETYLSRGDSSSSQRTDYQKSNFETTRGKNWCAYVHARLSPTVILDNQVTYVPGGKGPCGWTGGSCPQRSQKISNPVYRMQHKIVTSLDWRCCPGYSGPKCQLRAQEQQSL

[2] = molecular target: T2, human MMRN1 N-terminal EMI-Myc-His6 (first 290 amino acids of Multimerin-1, wild type) (human) (UniProt Q13201); assay: as above
T2 sequence: T1 sequence with A197T

Substance	binding [1]	binding [2]
GFP–FUT10 (human FUT10 lacking the transmembrane domain, from pGEn2-GFP-hFUT10) (from UniProt Q6P4F1) (enzyme)	binds	binds
GFP–FUT11 (human FUT11 lacking the transmembrane domain, from pGEn2-GFP-hFUT11) (from UniProt Q495W5) (enzyme)	binds	binds
